# Measured values reported in article PMC7819943, “Rice protein-binding microarrays: a tool to detect cis-acting elements near promoter regions in rice”.
# Protein sequences, listed by entry. Tags and fused reporters are not part of them.
# UniProt Q0JBA9, entry or part of it: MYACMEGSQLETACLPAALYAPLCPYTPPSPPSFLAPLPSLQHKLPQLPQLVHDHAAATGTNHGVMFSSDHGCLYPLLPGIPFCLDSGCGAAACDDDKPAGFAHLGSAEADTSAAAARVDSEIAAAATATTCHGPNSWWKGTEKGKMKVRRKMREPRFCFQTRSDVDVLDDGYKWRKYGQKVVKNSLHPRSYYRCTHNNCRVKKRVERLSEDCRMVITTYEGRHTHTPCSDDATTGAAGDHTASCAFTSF
# The other results are listed elsewhere or left out.
# Target: OsWRKY34 (Oryza sativa, UniProt Q0JBA9 1-250)
# Assay: protein-binding microarray (RPBM); PBS, 2% BSA, 51.3 ng/ul salmon testes DNA, 50 uM zinc acetate, 200 nM TF, 25 C, 1 h; high values mean tight binding
# Conditions: protein: recombinant; tags: N-terminal polyhistidine and DsRed monomer fusion (pET32a); label: CyDye5-dUTP incorporated in the synthesized complementary strand; 3' TTTTT single-stranded linker to array surface; dsDNA, one strand shown
# Summary of the method: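 Transcription factors were made in E. coli BL21-CodonPlus as N-terminal fusions to a polyhistidine tag and DsRed, then purified on Ni–NTA. After primer extension with Cy5-dUTP and blocking with 2% BSA, a custom Agilent array was exposed for 1 h at 25 °C to 200 nM protein in PBS, 2% BSA, salmon testes DNA and 50 µM zinc acetate. Washed arrays were scanned on an Axon 4000B, and the binding signal is per-feature fluorescence intensity in arbitrary units.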
row,Sequence,binding signal
1,CTGCCTGCCCGAGTTGCCTTGCCCGCTTGTACTTTGCCTGCGGAGTCACCTAGTGCAG,9380 fluorescence intensity (a.u.)
2,TCGTTTTTTTTCCCTTAAAGTGCTTATATGCTAATAGGGTCGGAGTCACCTAGTGCAG,9240 fluorescence intensity (a.u.)
3,ATGGTGTGCATGGTTTGCTTCTGATTGTTTGTTTAGGATTCGGAGTCACCTAGTGCAG,8870 fluorescence intensity (a.u.)
4,ACCACCACCGGTTTGCCCATCCCCGGACCCACCCGCCAGTCGGAGTCACCTAGTGCAG,8630 fluorescence intensity (a.u.)
5,CAACACCACAAGAACACCTGATTGCTTGTTTGAACTATCTCGGAGTCACCTAGTGCAG,9030 fluorescence intensity (a.u.)
6,TGTCACGAAAACCATTCTTTCAACCGCAGTTTAATCTTAACGGAGTCACCTAGTGCAG,8280 fluorescence intensity (a.u.)
7,ATCATCCCATCCCATCTCATCCGTCCATCCGCCAACTCATCGGAGTCACCTAGTGCAG,12300 fluorescence intensity (a.u.)
8,CACACTATTAATCATTTTGATTTTGGTATACTGCACTTTTCGGAGTCACCTAGTGCAG,8080 fluorescence intensity (a.u.)
9,CCGTGCGCAATGTTTGACCGTTCGTCTTATTTGAAAAAATCGGAGTCACCTAGTGCAG,8400 fluorescence intensity (a.u.)
10,GCTGGTGGTGGTGGTAGAGGAGGAGTTGACGGCGAGGGGACGGAGTCACCTAGTGCAG,10300 fluorescence intensity (a.u.)
11,TCTCATCTGTCTATCAGTTTCGTCCAGGCACAACATAAGTCGGAGTCACCTAGTGCAG,9010 fluorescence intensity (a.u.)
12,GCCGCCGCCGCTTCGATTGCTCACTCGCGCCCCTCGCCGCCGGAGTCACCTAGTGCAG,11200 fluorescence intensity (a.u.)
13,GAACTTTTCCTGGATGGTGATCCTTCTTTTGGCCTTCTTTCGGAGTCACCTAGTGCAG,10500 fluorescence intensity (a.u.)
14,TAATTCTCGGATCCCACGCACAAGCAGTTGACCAACCGAGCGGAGTCACCTAGTGCAG,9030 fluorescence intensity (a.u.)
15,TATATATATATATATATATATATATAGCTGGGCGATGAACCGGAGTCACCTAGTGCAG,16300 fluorescence intensity (a.u.)
16,CTCTGCCAACGACTTCATCTTCATTATCTGTCGTTGGCTGCGGAGTCACCTAGTGCAG,8480 fluorescence intensity (a.u.)
17,GGTTATATTTTCGTGTTGCCATGCTTTCAACACACTTTGGCGGAGTCACCTAGTGCAG,9890 fluorescence intensity (a.u.)
18,TCGCCCTCTTCTTCTTCGTCGGCGCCGCCTTCGACAAGCTCGGAGTCACCTAGTGCAG,8240 fluorescence intensity (a.u.)
19,GCAGATGTTTTGTGAGTTGTGAGTTTCATTCCTGTCCAAACGGAGTCACCTAGTGCAG,11100 fluorescence intensity (a.u.)
20,TGCATTTCAATTCAAATTTAAGTTGATTCGTTGACTTGTTCGGAGTCACCTAGTGCAG,10100 fluorescence intensity (a.u.)
21,TCCCTCGTCGTCGTCGTCCCTGCGCCGCGGGGCGGGGCGGCGGAGTCACCTAGTGCAG,13700 fluorescence intensity (a.u.)

row,Sequence,binding signal
1,TGTTTCAACGTGTATTTTCATCATGTTTCATAAGCTTTTTCGGAGTCACCTAGTGCAG,9190 fluorescence intensity (a.u.)
2,CAAGCTATTTCTTGCATCATATAACATATTTTCAGCCATTCGGAGTCACCTAGTGCAG,8360 fluorescence intensity (a.u.)
3,ATTTACTTGATTTCTCATATATCATTGGGTTTGTTTCTATCGGAGTCACCTAGTGCAG,9590 fluorescence intensity (a.u.)
4,AACGTGAGGTTAGCTGAAATTTGCTCTTTTTTTTTTTTTTCGGAGTCACCTAGTGCAG,9740 fluorescence intensity (a.u.)
5,ATTTAGTACTGATTTTTTTTCTCATCAATACAATCACTACCGGAGTCACCTAGTGCAG,8280 fluorescence intensity (a.u.)
6,CGAGGTTTCTTATTTTATCTTATCTGTGGAAATAGTTTTCCGGAGTCACCTAGTGCAG,8460 fluorescence intensity (a.u.)
7,CGAGATTATTTATTTTTGTACTACATTTGCGATTATTATTCGGAGTCACCTAGTGCAG,8970 fluorescence intensity (a.u.)
8,AGTTTTTTCCTTTTTCCTGTCCCAATGTTGCGCGTTCGAACGGAGTCACCTAGTGCAG,8730 fluorescence intensity (a.u.)
9,TGTTGTTTCGTGTGTGGGCTGTGGCTGCTGATGGCTGGATCGGAGTCACCTAGTGCAG,10500 fluorescence intensity (a.u.)
10,GCACCATCTCCAGTTCCAAGTTCCAATTTTACAACTCTCCCGGAGTCACCTAGTGCAG,9720 fluorescence intensity (a.u.)
11,AACAATGCCAAATCCACCGGTCACAGGATGCCACTGCCTCCGGAGTCACCTAGTGCAG,8760 fluorescence intensity (a.u.)
12,CTACCCTATGCTATGAGACCGCTCTTATTCCGGGGTTTAACGGAGTCACCTAGTGCAG,9760 fluorescence intensity (a.u.)
13,TCCTGTGCGCCTCCCTCGAGCGTGTGACTGTGTTTGTGACCGGAGTCACCTAGTGCAG,8710 fluorescence intensity (a.u.)
14,CCTTTCCATTTCTGCAGAACTATCCTAGTGTCATAGTCTCCGGAGTCACCTAGTGCAG,13300 fluorescence intensity (a.u.)
15,GGTGTGGGTCGACGACTTGTGTTTTCCTAGGCAGCTTGAACGGAGTCACCTAGTGCAG,11900 fluorescence intensity (a.u.)
16,GGCGTATTTCTTTTTTTTTTTTCAAAGCAACCCGGGAAATCGGAGTCACCTAGTGCAG,10200 fluorescence intensity (a.u.)
17,GCGCGCGCTCGCTCGCTCGCTCGTCTCGCCGGATCTACAGCGGAGTCACCTAGTGCAG,8700 fluorescence intensity (a.u.)
18,TCTTCTTCTCTTAACCAATTACAACCATTCTTTTTTATCTCGGAGTCACCTAGTGCAG,8600 fluorescence intensity (a.u.)
19,ACCATAGAGCTGTTTGTCAGTACTGTTGTTTGCATGTGTACGGAGTCACCTAGTGCAG,8540 fluorescence intensity (a.u.)
20,AATTTTCCCTTTAGCAACATCACTAAGGGCCTGTTTAGTTCGGAGTCACCTAGTGCAG,8860 fluorescence intensity (a.u.)
21,TCCCTCTCTGCCGCAATCACCGCGCCTCCTCCGCATCCGCCGGAGTCACCTAGTGCAG,8460 fluorescence intensity (a.u.)

# Two records picked at random from those above, as already listed:
row,Sequence,binding signal
21,TCCCTCTCTGCCGCAATCACCGCGCCTCCTCCGCATCCGCCGGAGTCACCTAGTGCAG,8460 fluorescence intensity (a.u.)
12,CTACCCTATGCTATGAGACCGCTCTTATTCCGGGGTTTAACGGAGTCACCTAGTGCAG,9760 fluorescence intensity (a.u.)
